These are yes or no findings as the source states them, for the method shown. For part of these data: In cells and extracts the contact can be indirect. Some results given as binding are weak or reduced against the parent protein; the word gives no strength. For part of these data: Sequences can lack the tags named with a protein.
T1: AtASH2, DNA-binding-domain fusion from pGBKT-AtASH2 (Arabidopsis) (UniProt Q9C8J7)
T1 sequence: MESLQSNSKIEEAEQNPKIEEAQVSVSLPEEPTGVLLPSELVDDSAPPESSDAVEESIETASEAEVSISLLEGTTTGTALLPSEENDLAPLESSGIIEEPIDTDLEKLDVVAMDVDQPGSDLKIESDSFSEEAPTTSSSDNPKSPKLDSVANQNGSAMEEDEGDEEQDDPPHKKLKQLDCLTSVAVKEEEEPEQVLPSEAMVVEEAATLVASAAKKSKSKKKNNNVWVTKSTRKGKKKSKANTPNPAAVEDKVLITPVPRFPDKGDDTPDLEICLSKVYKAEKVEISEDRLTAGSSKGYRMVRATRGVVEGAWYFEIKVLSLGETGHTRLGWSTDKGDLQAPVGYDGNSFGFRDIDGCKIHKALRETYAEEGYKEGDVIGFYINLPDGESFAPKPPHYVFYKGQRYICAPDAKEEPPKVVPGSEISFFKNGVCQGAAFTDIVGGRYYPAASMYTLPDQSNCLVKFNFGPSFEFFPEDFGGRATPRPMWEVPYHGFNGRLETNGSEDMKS

The chains behind the UniProt entries cited, without tags or fusion partners.
UniProt Q9M2Z2: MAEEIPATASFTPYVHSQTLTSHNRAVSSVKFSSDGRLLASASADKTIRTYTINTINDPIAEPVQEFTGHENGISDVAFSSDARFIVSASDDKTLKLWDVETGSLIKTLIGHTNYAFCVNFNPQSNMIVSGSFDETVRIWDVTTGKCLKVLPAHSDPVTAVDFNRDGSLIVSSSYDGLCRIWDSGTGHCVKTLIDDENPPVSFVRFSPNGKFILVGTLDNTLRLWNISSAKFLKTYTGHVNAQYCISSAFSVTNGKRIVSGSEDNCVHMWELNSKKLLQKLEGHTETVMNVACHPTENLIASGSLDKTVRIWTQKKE


Legend:
[1] = target: AtWDR5a, DNA-binding-domain fusion from pGBKT-AtWDR5 (Arabidopsis) (UniProt Q9M2Z2); test: two-hybrid; yeast strain AH190; baits fused to the DNA binding domain (pGBKT), preys fused to the activation domain (pGADT7); growth on SD medium lacking Trp, Leu, His and Ade
[2] = target: T1, AtASH2, DNA-binding-domain fusion from pGBKT-AtASH2 (Arabidopsis); test: as above
[3] = target: TAP-tagged AtWDR5a fusion protein (Arabidopsis) (UniProt Q9M2Z2); test: pull-down; TAP-tagged AtWDR5a as bait, total cellular protein extracts; Coomassie-stained gel, western blot with antiATX1 antibody, bands identified by MS

| binding [1] | binding [2] | binding [3] | Binder |
| --- | --- | --- | --- |
| binds | no binding | – | ATX1 (ARABIDOPSIS TRITHORAX1), activation-domain fusion from pGADT7-ATX1 (protein, UniProt Q9C5X4 1-1062) MACFSNETQIEIDVHDLVEAPIRYDSIESIYSIPSSALCCVNAVGSHSLMSKKVKAQKLPMIEQFEIEGSGVSASDDCCRSDDYKLRIQRPEIVRVYYRRRKRPLRECLLDQAVAVKTESVELDEIDCFEEKKRRKIGNCELVKSGMESIGLRRCKENNAFSGNKQNGSSRRKGSSSKNQDKATLASRSAKKWVRLSYDGVDPTSFIGLQCKVFWPLDALWYEGSIVGYSAERKRYTVKYRDGCDEDIVFDREMIKFLVSREEMELLHLKFCTSNVTVDGRDYDEMVVLAATLDECQDFEPGDIVWAKLAGHAMWPAVIVDESIIGERKGLNNKVSGGGSLLVQFFGTHDFARIKVKQAISFIKGLLSPSHLKCKQPRFEEGMQEAKMYLKAHRLPERMSQLQKGADSVDSDMANSTEEGNSGGDLLNDGEVWLRPTEHVDFRHIIGDLLIINLGKVVTDSQFFKDENHIWPEGYTAMRKFTSLTDHSASALYKMEVLRDAETKTHPLFIVTADSGEQFKGPTPSACWNKIYNRIKKVQNSDSPNILGEELNGSGTDMFGLSNPEVIKLVQDLSKSRPSSHVSMCKNSLGRHQNQPTGYRPVRVDWKDLDKCNVCHMDEEYENNLFLQCDKCRMMVHAKCYGELEPCDGALWLCNLCRPGAPDMPPRCCLCPVVGGAMKPTTDGRWAHLACAIWIPETCLSDVKKMEPIDGVNKVSKDRWKLMCTICGVSYGACIQCSNNSCRVAYHPLCARAAGLCVELENDMSVEGEEADQCIRMLSFCKRHRQTSTACLGSEDRIKSATHKTSEYLPPPNPSGCARTEPYNCFGRRGRKEPEALAAASSKRLFVENQPYVIGGYSRLEFSTYKSIHGSKVSQMNTPSNILSMAEKYRYMRETYRKRLAFGKSGIHGFGIFAKLPHRAGDMMIEYTGELVRPSIADKREQLIYNSMVGAGTYMFRIDDERVIDATRTGSIAHLINHSCVPNCYSRVITVNGDEHIIIFAKRHIPKWEELTYDYRFFSIGERLSCSCGFPGCRGVVNDTEAEEQHAKICVPRCDLIDWTAE |
| – | – | binds | ATX1 (120 kD) from total cellular protein extracts (protein, UniProt Q9C5X4 1-1062) MACFSNETQIEIDVHDLVEAPIRYDSIESIYSIPSSALCCVNAVGSHSLMSKKVKAQKLPMIEQFEIEGSGVSASDDCCRSDDYKLRIQRPEIVRVYYRRRKRPLRECLLDQAVAVKTESVELDEIDCFEEKKRRKIGNCELVKSGMESIGLRRCKENNAFSGNKQNGSSRRKGSSSKNQDKATLASRSAKKWVRLSYDGVDPTSFIGLQCKVFWPLDALWYEGSIVGYSAERKRYTVKYRDGCDEDIVFDREMIKFLVSREEMELLHLKFCTSNVTVDGRDYDEMVVLAATLDECQDFEPGDIVWAKLAGHAMWPAVIVDESIIGERKGLNNKVSGGGSLLVQFFGTHDFARIKVKQAISFIKGLLSPSHLKCKQPRFEEGMQEAKMYLKAHRLPERMSQLQKGADSVDSDMANSTEEGNSGGDLLNDGEVWLRPTEHVDFRHIIGDLLIINLGKVVTDSQFFKDENHIWPEGYTAMRKFTSLTDHSASALYKMEVLRDAETKTHPLFIVTADSGEQFKGPTPSACWNKIYNRIKKVQNSDSPNILGEELNGSGTDMFGLSNPEVIKLVQDLSKSRPSSHVSMCKNSLGRHQNQPTGYRPVRVDWKDLDKCNVCHMDEEYENNLFLQCDKCRMMVHAKCYGELEPCDGALWLCNLCRPGAPDMPPRCCLCPVVGGAMKPTTDGRWAHLACAIWIPETCLSDVKKMEPIDGVNKVSKDRWKLMCTICGVSYGACIQCSNNSCRVAYHPLCARAAGLCVELENDMSVEGEEADQCIRMLSFCKRHRQTSTACLGSEDRIKSATHKTSEYLPPPNPSGCARTEPYNCFGRRGRKEPEALAAASSKRLFVENQPYVIGGYSRLEFSTYKSIHGSKVSQMNTPSNILSMAEKYRYMRETYRKRLAFGKSGIHGFGIFAKLPHRAGDMMIEYTGELVRPSIADKREQLIYNSMVGAGTYMFRIDDERVIDATRTGSIAHLINHSCVPNCYSRVITVNGDEHIIIFAKRHIPKWEELTYDYRFFSIGERLSCSCGFPGCRGVVNDTEAEEQHAKICVPRCDLIDWTAE |

Reference: PMC3527332
